The other results are listed elsewhere or left out.
Compound: CC1Cc2ccccc2N1C(=O)C1CCCN(C1)C(=O)CCl (mixture of isomers) [TRIM25 ligand 11 (diastereomer mixture)]
Assay: probe-labelled cysteine peptide fold change vs DMSO (competition) (log2 fold change); higher = less target engagement (more negative = stronger competition)
Conditions: THP-1, incubation time: 4 h
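Also: competitive chemoproteomic profiling in live THP-1 cells with an iodoacetamide desthiobiotin (IA-DTB) probe, comparing probe-labelled peptide intensities in compound-treated cells against DMSO-treated controls.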

Protein sequences, listed by entry. Tags and fused reporters are not part of them. Lines headed by an entry give the natural chain unless they say otherwise; changes in a name come on top.
UniProt Q9BW27: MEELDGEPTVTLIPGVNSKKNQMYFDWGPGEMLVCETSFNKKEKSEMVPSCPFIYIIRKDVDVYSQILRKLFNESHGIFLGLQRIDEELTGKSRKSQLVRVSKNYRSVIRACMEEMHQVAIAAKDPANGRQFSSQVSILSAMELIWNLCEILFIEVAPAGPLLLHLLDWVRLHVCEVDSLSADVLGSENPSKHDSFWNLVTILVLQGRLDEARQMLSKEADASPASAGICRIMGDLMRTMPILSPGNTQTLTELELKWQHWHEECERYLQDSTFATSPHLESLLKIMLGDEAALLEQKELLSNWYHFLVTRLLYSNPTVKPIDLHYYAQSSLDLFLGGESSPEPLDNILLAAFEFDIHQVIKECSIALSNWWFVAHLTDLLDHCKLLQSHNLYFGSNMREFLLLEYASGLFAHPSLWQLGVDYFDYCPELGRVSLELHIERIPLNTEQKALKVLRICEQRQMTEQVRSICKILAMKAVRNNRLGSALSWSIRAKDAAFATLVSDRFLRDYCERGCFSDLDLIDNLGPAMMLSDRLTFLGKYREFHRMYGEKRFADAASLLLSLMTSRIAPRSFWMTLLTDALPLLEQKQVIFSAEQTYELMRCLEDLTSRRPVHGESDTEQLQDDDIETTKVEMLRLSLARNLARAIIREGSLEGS
UniProt O60502: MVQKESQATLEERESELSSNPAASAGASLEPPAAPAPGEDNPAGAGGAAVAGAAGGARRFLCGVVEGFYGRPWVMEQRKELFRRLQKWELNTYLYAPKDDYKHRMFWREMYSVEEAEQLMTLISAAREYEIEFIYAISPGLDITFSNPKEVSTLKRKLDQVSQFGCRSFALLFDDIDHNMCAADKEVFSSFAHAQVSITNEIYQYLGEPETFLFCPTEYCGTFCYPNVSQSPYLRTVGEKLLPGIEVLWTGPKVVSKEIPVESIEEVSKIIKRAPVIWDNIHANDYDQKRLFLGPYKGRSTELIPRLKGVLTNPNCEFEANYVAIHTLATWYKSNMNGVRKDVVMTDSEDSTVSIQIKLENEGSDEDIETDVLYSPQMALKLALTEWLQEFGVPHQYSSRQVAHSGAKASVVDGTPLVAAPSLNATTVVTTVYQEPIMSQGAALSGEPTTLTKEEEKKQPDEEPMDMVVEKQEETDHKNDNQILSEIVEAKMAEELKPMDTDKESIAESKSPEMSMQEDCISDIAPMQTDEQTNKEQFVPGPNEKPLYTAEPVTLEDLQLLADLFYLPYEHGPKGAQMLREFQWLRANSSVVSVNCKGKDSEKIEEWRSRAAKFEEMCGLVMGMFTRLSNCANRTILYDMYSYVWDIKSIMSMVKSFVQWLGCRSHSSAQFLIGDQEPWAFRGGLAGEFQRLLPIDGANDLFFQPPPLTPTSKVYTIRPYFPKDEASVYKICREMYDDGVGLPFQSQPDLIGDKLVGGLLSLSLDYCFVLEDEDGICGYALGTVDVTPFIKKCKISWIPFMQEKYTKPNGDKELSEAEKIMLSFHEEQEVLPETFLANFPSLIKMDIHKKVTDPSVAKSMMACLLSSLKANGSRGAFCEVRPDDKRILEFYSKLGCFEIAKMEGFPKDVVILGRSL
UniProt Q14980: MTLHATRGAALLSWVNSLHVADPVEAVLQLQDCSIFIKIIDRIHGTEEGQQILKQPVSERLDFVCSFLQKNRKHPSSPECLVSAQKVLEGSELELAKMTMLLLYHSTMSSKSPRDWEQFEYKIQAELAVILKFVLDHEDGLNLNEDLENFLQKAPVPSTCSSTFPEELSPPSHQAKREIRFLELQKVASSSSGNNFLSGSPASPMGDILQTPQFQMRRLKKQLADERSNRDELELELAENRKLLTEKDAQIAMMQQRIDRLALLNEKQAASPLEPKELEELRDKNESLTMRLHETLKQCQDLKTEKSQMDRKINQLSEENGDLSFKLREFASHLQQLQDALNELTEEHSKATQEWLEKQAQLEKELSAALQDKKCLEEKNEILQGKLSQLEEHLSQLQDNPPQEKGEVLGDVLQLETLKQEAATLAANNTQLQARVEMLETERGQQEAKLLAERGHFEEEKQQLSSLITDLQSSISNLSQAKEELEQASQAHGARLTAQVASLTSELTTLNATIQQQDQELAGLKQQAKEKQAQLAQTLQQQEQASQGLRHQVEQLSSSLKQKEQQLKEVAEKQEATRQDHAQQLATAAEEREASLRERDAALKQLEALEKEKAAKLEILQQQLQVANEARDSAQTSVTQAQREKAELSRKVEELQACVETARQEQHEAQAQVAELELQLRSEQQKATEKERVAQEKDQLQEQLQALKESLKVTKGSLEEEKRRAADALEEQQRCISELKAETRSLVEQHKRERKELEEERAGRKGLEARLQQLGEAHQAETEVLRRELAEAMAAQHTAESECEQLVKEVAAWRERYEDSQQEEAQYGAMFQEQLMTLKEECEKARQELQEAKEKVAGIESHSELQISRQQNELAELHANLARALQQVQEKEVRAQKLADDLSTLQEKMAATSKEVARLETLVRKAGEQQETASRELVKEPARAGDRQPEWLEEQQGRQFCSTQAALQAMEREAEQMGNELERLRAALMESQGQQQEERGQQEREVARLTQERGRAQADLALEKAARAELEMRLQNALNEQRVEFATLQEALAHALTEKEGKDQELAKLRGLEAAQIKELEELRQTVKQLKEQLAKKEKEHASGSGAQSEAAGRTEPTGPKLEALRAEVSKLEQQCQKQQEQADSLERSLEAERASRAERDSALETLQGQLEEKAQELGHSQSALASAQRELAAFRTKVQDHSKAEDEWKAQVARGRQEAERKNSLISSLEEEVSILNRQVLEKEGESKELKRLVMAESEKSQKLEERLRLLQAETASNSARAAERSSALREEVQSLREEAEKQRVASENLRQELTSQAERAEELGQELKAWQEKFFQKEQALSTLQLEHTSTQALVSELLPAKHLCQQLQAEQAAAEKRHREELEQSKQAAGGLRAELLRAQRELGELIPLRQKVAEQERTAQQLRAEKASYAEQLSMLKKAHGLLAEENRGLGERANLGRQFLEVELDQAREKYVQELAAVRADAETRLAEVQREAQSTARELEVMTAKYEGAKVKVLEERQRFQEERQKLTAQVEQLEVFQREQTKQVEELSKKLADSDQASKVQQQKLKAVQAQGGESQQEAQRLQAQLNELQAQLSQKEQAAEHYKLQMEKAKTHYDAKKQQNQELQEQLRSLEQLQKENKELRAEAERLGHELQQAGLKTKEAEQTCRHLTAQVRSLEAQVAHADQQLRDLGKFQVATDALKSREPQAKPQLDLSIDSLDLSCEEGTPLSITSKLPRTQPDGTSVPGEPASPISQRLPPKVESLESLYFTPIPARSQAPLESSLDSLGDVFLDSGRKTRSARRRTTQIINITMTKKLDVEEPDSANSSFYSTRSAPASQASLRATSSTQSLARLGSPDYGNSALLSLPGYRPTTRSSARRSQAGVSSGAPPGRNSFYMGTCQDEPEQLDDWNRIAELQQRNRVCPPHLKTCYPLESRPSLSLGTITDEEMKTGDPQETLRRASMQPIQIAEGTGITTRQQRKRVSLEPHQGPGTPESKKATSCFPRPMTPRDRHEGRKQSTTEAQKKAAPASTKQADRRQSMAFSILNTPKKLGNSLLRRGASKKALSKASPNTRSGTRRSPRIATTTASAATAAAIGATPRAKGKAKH
UniProt Q99567: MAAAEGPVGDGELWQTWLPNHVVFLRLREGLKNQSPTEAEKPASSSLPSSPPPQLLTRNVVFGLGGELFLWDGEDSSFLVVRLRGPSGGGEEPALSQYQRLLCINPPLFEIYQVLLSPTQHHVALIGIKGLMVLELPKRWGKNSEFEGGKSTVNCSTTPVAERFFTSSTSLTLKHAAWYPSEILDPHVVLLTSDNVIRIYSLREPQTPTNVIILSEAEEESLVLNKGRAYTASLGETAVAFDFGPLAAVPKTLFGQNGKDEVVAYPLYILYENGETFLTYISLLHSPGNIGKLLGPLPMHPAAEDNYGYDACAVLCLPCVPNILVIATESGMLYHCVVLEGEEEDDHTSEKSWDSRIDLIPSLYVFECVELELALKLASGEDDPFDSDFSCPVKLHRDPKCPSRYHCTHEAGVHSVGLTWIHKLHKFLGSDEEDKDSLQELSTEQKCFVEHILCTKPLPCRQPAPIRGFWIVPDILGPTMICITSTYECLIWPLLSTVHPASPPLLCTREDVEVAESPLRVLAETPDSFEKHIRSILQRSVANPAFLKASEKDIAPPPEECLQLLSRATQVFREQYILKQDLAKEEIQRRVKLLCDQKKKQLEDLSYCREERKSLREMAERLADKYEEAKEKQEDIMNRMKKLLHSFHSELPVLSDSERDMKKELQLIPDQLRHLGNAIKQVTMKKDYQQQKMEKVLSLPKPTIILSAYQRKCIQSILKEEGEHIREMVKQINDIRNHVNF
UniProt O95848: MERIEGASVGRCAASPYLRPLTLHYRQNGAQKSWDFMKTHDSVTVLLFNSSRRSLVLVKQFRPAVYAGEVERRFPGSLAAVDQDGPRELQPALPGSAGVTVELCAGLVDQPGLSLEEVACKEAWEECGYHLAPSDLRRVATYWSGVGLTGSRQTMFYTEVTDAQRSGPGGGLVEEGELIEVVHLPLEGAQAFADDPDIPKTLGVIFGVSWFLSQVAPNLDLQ
UniProt Q12769: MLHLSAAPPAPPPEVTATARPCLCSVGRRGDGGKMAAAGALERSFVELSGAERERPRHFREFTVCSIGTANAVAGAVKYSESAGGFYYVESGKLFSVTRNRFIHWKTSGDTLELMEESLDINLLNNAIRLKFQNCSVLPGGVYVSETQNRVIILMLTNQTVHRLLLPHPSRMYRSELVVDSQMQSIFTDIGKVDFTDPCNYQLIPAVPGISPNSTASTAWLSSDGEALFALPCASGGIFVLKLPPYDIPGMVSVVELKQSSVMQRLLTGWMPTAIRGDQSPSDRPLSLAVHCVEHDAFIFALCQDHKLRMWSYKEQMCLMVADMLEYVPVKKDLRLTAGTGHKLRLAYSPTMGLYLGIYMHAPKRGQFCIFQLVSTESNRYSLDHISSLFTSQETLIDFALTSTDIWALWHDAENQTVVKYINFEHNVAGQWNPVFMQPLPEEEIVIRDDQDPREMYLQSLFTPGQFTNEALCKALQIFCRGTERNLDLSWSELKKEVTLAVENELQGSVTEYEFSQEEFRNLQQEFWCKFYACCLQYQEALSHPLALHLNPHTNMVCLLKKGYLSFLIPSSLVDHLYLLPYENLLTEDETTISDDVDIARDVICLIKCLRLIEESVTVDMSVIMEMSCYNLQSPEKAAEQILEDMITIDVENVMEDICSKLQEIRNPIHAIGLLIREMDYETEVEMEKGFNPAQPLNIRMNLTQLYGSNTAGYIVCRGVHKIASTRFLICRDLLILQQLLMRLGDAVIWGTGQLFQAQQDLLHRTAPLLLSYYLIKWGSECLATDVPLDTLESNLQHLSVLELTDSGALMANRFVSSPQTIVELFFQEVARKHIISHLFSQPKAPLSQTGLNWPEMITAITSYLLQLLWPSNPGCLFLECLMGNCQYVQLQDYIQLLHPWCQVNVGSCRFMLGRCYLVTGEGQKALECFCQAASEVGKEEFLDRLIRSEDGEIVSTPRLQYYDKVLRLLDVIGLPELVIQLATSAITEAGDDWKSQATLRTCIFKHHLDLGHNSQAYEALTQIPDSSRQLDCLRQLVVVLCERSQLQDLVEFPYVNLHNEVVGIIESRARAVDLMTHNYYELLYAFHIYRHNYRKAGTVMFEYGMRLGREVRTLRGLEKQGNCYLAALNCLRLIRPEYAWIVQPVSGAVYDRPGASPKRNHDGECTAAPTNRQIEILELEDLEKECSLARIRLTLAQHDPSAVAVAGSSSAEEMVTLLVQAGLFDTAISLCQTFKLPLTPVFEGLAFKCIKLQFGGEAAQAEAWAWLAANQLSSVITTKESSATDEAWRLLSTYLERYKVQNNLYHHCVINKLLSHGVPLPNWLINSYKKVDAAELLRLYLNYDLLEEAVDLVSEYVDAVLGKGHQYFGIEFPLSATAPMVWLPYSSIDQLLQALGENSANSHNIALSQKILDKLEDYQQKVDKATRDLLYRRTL
UniProt O15527, whole entry: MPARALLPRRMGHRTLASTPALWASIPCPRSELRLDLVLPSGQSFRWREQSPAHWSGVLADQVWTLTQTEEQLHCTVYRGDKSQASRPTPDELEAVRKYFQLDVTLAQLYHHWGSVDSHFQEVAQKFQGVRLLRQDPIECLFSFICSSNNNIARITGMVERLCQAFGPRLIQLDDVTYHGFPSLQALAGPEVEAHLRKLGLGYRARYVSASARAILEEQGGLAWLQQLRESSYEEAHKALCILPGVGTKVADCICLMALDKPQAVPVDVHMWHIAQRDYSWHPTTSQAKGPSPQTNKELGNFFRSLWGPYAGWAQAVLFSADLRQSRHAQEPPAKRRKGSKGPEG
UniProt P50583: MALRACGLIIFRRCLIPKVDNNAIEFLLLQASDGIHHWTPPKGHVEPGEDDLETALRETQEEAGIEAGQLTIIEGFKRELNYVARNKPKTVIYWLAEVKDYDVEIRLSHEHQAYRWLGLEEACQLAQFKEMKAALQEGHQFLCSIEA

Target | probe-labelled cysteine peptide fold change (10 µM) | probe-labelled cysteine peptide fold change (50 µM)
NUP85_Q9BW27_51_SEMVPSCPFIYIIR (UniProt Q9BW27) | -0.141 | -0.189
OBSL1_O75147_412_LKADDDGIYLCEMR (UniProt O75147) | -0.0685 | 0.0746
OGA_O60502_181_SFALLFDDIDHNMCAADK (UniProt O60502) | -0.0884 | 0.019
NUP205_Q92621_1486_DACDGHEIGR (UniProt Q92621) | 0.206 | 0.294
OGA_O60502_596_ANSSVVSVNCK (UniProt O60502) | -0.0358 | -0.308
OGFOD1_Q8N543_308_VCEALEHGHVEWSSR (UniProt Q8N543) | 0.234 | 0.129
NUMA1_Q14980_658_KVEELQACVETAR (UniProt Q14980) | -0.0731 | -0.0752
NUP88_Q99567_447+454_CFVEHILCTK (UniProt Q99567) | 0.103 | 0.0339
NTMT1_Q9BV86_195_IICSAGLSLLAEERQENLPDEIYHVYSFALR (UniProt Q9BV86) | -0.201 | -0.526
NUP98_P52948_1312_WLSCTATPQIEEEVSLTQK (UniProt P52948) | -0.074 | -0.163
OAS3_Q9Y6K5_73_GGCDSELVIFLDCFK (UniProt Q9Y6K5) | -0.0584 | -0.0297
NUDT14_O95848_12_CAASPYLRPLTLHYR (UniProt O95848) | -0.125 | 0.0208
NUMA1_Q14980_160_APVPSTCSSTFPEELSPPSHQAK (UniProt Q14980) | 0.0318 | -0.167
OGFOD2_Q6N063_209_FLQPLMALLYPDCGGGR (UniProt Q6N063) | 0.163 | 0.402
OGDH_Q02218_604_SMSCPSTGLTEDILTHIGNVASSVPVENFTIHGGLSR (UniProt Q02218) | 0.082 | -0.0875
OGFR_Q9NZT2_330_TCGPEHSK (UniProt Q9NZT2) | -0.0315 | 0.0148
NUMA1_Q14980_80_HPSSPECLVSAQK (UniProt Q14980) | 0.106 | -0.0541
NUP155_O75694_917_ISNQVDLSNVCAQYR (UniProt O75694) | -0.078 | -0.147
NUDCD1_Q96RS6_376_DSAQCAAIAER (UniProt Q96RS6) | -0.11 | -0.0353
NUP107_P57740_442_QLLPVCDTWEDTVWAYFR (UniProt P57740) | 0.293 | 0.103
NUP160_Q12769_1166_RNHDGECTAAPTNR (UniProt Q12769) | 0.139 | 0.0275

Target | probe-labelled cysteine peptide fold change (10 µM) | probe-labelled cysteine peptide fold change (50 µM)
NUP98_P52948_1636_HLEALCLFK (UniProt P52948) | 0.103 | -0.0312
NUP85_Q9BW27_603_CLEDLTSR (UniProt Q9BW27) | 0.0545 | 0.135
NUP85_Q9BW27_265_WQHWHEECER (UniProt Q9BW27) | 0.242 | 0.144
OGG1_O15527_140_LLRQDPIECLFSFICSSNNNIAR (UniProt O15527) | -0.487 | -0.127
NUDT18_Q6ZVK8_241_LLQECLTLHHLVVEIK (UniProt Q6ZVK8) | -0.0478 | 0.071
NUP37_Q8NFH4_172_IWNLEGVQTAHFVLHSPGMSVCWHPEETFK (UniProt Q8NFH4) | 0.0758 | -0.0133
NUS1_Q96E22_235_QKRPTDLDVDTLASLLSSNGCPDPDLVLK (UniProt Q96E22) | -0.332 | -0.641
NUP88_Q99567_561_DIAPPPEECLQLLSR (UniProt Q99567) | -0.0661 | -0.136
NUP133_Q8WUM0_457_IVFNAQGDSVLGAGACGGVPIIFSR (UniProt Q8WUM0) | -0.146 | -0.142
NUP160_Q12769_318_EQMCLMVADMLEYVPVKK (UniProt Q12769) | 0.169 | 0.0933
NUMA1_Q14980_1367_HLCQQLQAEQAAAEKR (UniProt Q14980) | -0.15 | -0.0853
OFD1_O75665_503_AIVVEHEEFESCR (UniProt O75665) | 0.26 | -0.0094
NUP210_Q8TEM1_746_FVCAPPSR (UniProt Q8TEM1) | 0.0568 | 0.329
NUP85_Q9BW27_112_ACMEEMHQVAIAAK (UniProt Q9BW27) | -0.0575 | -0.0569
NUDT8_Q8WV74_39_ARPASAAVLVPLCSVR (UniProt Q8WV74) | -0.0587 | 0.19
NUP160_Q12769_473_EMYLQSLFTPGQFTNEALCK (UniProt Q12769) | 0.0737 | -0.00751
NUMA1_Q14980_1367_HLCQQLQAEQAAAEK (UniProt Q14980) | 0.0481 | -0.031
NUFIP2_Q7Z417_234_GCENLNIVQDK (UniProt Q7Z417) | -0.0264 | 0.102
NUP160_Q12769_1042_QLVVVLCER (UniProt Q12769) | 0.25 | 0.0629
NUDT2_P50583_143_AALQEGHQFLCSIEA (UniProt P50583) | -0.0972 | 0.104

A portion taken from the entries so far, as a working copy:
Target | probe-labelled cysteine peptide fold change (10 µM) | probe-labelled cysteine peptide fold change (50 µM)
NUP85_Q9BW27_265_WQHWHEECER (UniProt Q9BW27) | 0.242 | 0.144
OGG1_O15527_140_LLRQDPIECLFSFICSSNNNIAR (UniProt O15527) | -0.487 | -0.127

Reference: the supplement of paper PMC12067093, “Discovery and optimisation of a covalent ligand for TRIM25 and its application to targeted protein ubiquitination” (Chemical Science, 2025)
